The record followed here is PMC5386714.

No constants are given. Whether binding was seen depends on the method and setting. For part of these data: In cells and extracts the contact can be indirect. Some results given as binding are weak or reduced against the parent protein; the word gives no strength. For part of these data: Where a sequence is shown, tags or fusion partners need not be part of it.

Test [1] has as its target T1, kinesin family member 4A (KIF4A), endogenous (human (endogenous in A549, HeLa)) (UniProt O95239).
T1 sequence: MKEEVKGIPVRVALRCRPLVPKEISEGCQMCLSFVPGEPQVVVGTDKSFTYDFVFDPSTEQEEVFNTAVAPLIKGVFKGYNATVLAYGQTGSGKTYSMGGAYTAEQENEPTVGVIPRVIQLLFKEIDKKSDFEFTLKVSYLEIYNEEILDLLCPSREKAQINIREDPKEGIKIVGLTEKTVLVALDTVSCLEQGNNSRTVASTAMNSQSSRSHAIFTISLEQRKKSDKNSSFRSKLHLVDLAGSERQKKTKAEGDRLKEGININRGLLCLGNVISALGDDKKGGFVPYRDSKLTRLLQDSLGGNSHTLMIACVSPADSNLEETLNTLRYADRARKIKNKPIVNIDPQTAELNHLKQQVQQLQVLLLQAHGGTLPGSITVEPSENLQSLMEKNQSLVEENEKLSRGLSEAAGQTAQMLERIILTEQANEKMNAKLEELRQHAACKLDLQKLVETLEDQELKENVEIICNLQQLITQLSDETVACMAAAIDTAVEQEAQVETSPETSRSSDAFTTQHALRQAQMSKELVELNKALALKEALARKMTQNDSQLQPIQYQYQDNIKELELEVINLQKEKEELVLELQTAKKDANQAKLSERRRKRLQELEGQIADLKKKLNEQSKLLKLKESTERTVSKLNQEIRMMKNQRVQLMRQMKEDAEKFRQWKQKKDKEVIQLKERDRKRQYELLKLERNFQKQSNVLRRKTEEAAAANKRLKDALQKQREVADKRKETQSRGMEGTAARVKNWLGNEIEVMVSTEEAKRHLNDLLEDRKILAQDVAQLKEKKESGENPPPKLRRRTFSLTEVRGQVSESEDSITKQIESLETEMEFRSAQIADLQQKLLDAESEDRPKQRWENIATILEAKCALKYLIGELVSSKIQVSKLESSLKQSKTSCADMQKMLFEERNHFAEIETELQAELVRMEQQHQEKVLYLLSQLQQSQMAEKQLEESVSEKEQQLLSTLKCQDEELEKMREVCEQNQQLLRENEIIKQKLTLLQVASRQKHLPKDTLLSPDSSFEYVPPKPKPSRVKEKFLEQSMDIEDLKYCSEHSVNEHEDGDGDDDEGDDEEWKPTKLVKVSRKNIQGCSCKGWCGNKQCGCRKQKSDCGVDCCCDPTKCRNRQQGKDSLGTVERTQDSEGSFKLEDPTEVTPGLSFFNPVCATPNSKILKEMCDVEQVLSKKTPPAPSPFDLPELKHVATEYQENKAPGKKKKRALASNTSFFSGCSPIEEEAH
As to the kind of experiment: co-IP; endogenous proteins in A549 cells, immunoprecipitation with anti-PHF14 and reciprocally with anti-KIF4A antibodies; ethidium bromide in the IP buffer.

The target of test [2] is T2, PHD finger protein 14 (PHF14), endogenous (human (endogenous in A549, HeLa, 293T)) (UniProt O94880).
T2 sequence: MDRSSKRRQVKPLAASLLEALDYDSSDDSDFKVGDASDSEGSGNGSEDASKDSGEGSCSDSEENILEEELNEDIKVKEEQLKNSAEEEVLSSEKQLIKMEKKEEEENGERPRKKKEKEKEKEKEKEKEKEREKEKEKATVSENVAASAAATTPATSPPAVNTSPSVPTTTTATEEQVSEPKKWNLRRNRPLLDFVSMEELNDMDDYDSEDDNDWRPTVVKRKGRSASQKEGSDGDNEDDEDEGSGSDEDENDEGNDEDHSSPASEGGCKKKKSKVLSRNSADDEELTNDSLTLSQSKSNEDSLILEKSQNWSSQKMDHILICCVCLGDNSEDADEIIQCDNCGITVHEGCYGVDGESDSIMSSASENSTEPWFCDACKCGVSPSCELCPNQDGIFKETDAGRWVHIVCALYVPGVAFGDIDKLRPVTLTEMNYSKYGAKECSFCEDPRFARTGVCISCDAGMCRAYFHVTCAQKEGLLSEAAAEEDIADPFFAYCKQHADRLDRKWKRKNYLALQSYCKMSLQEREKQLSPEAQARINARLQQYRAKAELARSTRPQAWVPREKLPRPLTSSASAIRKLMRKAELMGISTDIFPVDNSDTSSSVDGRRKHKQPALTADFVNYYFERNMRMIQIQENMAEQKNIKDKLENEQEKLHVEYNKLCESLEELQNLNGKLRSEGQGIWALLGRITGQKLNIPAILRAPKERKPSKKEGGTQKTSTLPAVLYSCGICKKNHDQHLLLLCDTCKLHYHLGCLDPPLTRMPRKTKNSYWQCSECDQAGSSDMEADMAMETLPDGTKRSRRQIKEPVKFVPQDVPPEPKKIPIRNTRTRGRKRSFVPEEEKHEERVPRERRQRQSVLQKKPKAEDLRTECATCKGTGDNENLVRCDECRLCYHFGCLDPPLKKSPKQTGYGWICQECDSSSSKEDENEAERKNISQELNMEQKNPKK
As to the kind of experiment: co-IP; GFP-tagged WT KIF4A or deletion mutants expressed in 293T cells, co-immunoprecipitation with PHF14; ethidium bromide in the IP buffer.

Test [3] has as its target T3, myc-tagged PHF14 (wild type) (human) (UniProt O94880).
T3 sequence: T2 sequence
Kind of test: co-IP; myc-PHF14 or its mutants and GFP-KIF4A co-overexpressed in HCT-116 cells; ethidium bromide in the IP buffer.

For test [4], the target named is T4, KIF4A-unbound PHF14 mutant (Δ1-160a.a) (human) (UniProt O94880).
T4 sequence: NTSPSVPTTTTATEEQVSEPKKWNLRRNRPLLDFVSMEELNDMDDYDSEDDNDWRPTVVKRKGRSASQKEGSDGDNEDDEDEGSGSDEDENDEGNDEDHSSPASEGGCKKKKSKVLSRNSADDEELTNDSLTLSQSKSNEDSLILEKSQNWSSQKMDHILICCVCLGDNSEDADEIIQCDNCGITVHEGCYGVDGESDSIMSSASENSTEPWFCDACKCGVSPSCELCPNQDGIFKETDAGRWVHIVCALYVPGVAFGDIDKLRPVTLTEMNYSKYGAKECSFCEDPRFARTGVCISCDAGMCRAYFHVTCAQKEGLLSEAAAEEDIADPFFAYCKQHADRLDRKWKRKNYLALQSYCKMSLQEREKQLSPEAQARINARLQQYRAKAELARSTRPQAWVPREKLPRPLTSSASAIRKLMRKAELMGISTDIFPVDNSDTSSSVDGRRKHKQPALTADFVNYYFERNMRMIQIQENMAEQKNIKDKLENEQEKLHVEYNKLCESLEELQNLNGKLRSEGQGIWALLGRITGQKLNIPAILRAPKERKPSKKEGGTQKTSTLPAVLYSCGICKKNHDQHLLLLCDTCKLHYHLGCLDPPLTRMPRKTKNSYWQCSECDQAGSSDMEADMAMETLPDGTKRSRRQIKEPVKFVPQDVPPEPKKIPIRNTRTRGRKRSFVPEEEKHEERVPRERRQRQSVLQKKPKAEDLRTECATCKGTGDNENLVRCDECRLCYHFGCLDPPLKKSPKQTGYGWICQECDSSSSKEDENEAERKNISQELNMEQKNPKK
Described as above.

The target in test [5] is T2, PHD finger protein 14 (PHF14), endogenous (human (endogenous in A549, HeLa, 293T)). As to the kind of experiment: co-IP; endogenous proteins in A549 cells, immunoprecipitation with anti-PHF14 and reciprocally with anti-KIF4A antibodies; ethidium bromide in the IP buffer.
Test [6] shares this target. Kind of test: SEC; FPLC gel filtration of HeLa nuclear extract (50 mM Tris-HCl pH8.0, 0.3 M NaCl, 1 mM EDTA) on HiLoad 16/60 Superdex 200, eluted with PBS; fractions analysed by western blotting. Background: SEC sorts molecules by how far they enter the pores of the column.

B1: PHD finger protein 14 (PHF14), endogenous (protein, UniProt O94880 1-948)
chain: T2 sequence
Regarding B1, the binding entry in test [1] is given as “binds”.

B2: GFP-tagged WT KIF4A (protein, UniProt O95239 1-1232)
chain: T1 sequence
In the case of B2, the binding entry was “binds” in test [2], “binds” in test [3] and “no binding” in test [4].

B3: kinesin family member 4A (KIF4A), endogenous (protein, UniProt O95239 1-1232)
chain: T1 sequence
In the case of B3, the binding result in test [5] and in test [6] was “binds” each time.
